Values from PubChem BioAssay AID1159584 (Peter MacCallum Cancer Centre, 2016).
The whole screen tested about 18,000 reagents; below is an unselected part. No sequences are given here. The record does not give: the amount of reagent, the time to read-out.

- Assay: 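Genes that CDH1-null MCF10A cells selectively depend on to survive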 (primary screen)
- System: human MCF10A breast epithelial cells, parental and CDH1-null
- Knock-down reagent: siRNA against human genes
- Measurement: 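Cell viability by CellTiter-Glo ATP luminescence, each line scaled to the mean of mock wells across plates, then CDH1-null over parental ratio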
- Scale: CDH1-null / parental viability ratio: higher = CDH1-null cells survive relatively better than parental; CDH1-null viability vs mock: higher = more viable CDH1-null cells; parental viability vs mock: higher = more viable parental cells

| gene | CDH1-null / parental viability ratio | CDH1-null viability vs mock (fraction of mock) | parental viability vs mock (fraction of mock) |
| --- | --- | --- | --- |
| ICOSLG (inducible T cell costimulator ligand) | 0.91 | 0.6 | 0.66 |
| PPME1 (protein phosphatase methylesterase 1) | 1.1 | 1.09 | 0.99 |
| CLDN2 (claudin 2) | 1.16 | 1.04 | 0.9 |
| SHISA4 (shisa family member 4) | 0.86 | 0.6 | 0.7 |
| GPN2 (GPN-loop GTPase 2) | 1.24 | 0.72 | 0.58 |
| SORCS1 (sortilin related VPS10 domain containing receptor 1) | 0.82 | 0.79 | 0.96 |
| CILP (cartilage intermediate layer protein) | 1.29 | 0.88 | 0.68 |
| WASF1 (WASP family member 1) | 0.92 | 0.66 | 0.72 |
| SLC24A3 | 1.19 | 0.83 | 0.7 |
| KCTD14 (potassium channel tetramerization domain containing 14) | 1.11 | 0.82 | 0.74 |
| METTL15 (methyltransferase 15, mitochondrial 12S rRNA N4-cytidine) | 1.08 | 0.64 | 0.59 |
| NREP (neuronal regeneration related protein) | 0.8 | 0.56 | 0.7 |
| CATSPERG (catsper channel auxiliary subunit gamma) | 1.7 | 0.68 | 0.4 |
| SLC25A53 | 1.07 | 0.79 | 0.74 |
| PTN (pleiotrophin) | 0.96 | 0.68 | 0.71 |
| CLCA2 (chloride channel accessory 2) | 1.19 | 1.02 | 0.86 |
| ALKBH7 (alkB homolog 7, RNA demethylase) | 1.35 | 0.42 | 0.31 |
| CERS2 (ceramide synthase 2) | 0.99 | 0.92 | 0.93 |
| NDUFA11 (NADH:ubiquinone oxidoreductase subunit A11) | 0.82 | 0.66 | 0.8 |
| ANKHD1 (ankyrin repeat and KH domain containing 1) | 1.11 | 0.62 | 0.56 |
| ENPP1 (ectonucleotide pyrophosphatase/phosphodiesterase 1) | 1.03 | 0.93 | 0.9 |
| ZNF26 (zinc finger protein 26) | 1.21 | 1.02 | 0.84 |
| FERMT3 (FERM domain containing kindlin 3) | 0.77 | 0.44 | 0.57 |

5 entries from above, limited to “CDH1-null / parental viability ratio”:
KCTD14 (potassium channel tetramerization domain containing 14)	1.11
METTL15 (methyltransferase 15, mitochondrial 12S rRNA N4-cytidine)	1.08
NREP (neuronal regeneration related protein)	0.8
CATSPERG (catsper channel auxiliary subunit gamma)	1.7
SLC25A53	1.07

The listing continues.
| gene | CDH1-null / parental viability ratio | CDH1-null viability vs mock (fraction of mock) | parental viability vs mock (fraction of mock) |
| --- | --- | --- | --- |
| ZC3H18 (zinc finger CCCH-type containing 18) | 1.1 | 0.53 | 0.48 |
| UNKL (unk like zinc finger) | 0.88 | 0.9 | 1.02 |
| EEF2 (eukaryotic translation elongation factor 2) | 0.9 | 0.74 | 0.82 |
| PSG2 (pregnancy specific beta-1-glycoprotein 2) | 1.18 | 0.97 | 0.82 |
| ACIN1 (apoptotic chromatin condensation inducer 1) | 1.23 | 1.08 | 0.88 |
| UQCRC1 (ubiquinol-cytochrome c reductase core protein 1) | 1.18 | 0.87 | 0.74 |
| CSNK1G2 (casein kinase 1 gamma 2) | 0.87 | 0.9 | 1.03 |
| NTM (neurotrimin) | 1 | 0.57 | 0.57 |
| H3C2 (H3 clustered histone 2) | 1.13 | 0.71 | 0.63 |
| RFC5 (replication factor C subunit 5) | 1.31 | 1.05 | 0.8 |
| RFC2 (replication factor C subunit 2) | 1.15 | 0.94 | 0.82 |
| ARFGEF1 (ARF guanine nucleotide exchange factor 1) | 1.08 | 0.67 | 0.62 |
| KCNA7 (potassium voltage-gated channel subfamily A member 7) | 1.4 | 1.09 | 0.78 |
| FAM181A (family with sequence similarity 181 member A) | 1.2 | 0.72 | 0.6 |
| SOX18 (SRY-box transcription factor 18) | 0.98 | 0.78 | 0.8 |
| ALPK2 (alpha kinase 2) | 0.84 | 0.94 | 1.12 |
| TGOLN2 (trans-golgi network protein 2) | 1.06 | 0.74 | 0.7 |
| STK38 (serine/threonine kinase 38) | 1.2 | 0.84 | 0.7 |
| DHRS7 (dehydrogenase/reductase 7) | 0.75 | 0.6 | 0.8 |
| HSFY1 (heat shock transcription factor Y-linked 1) | 0.71 | 0.61 | 0.86 |
| IQGAP3 (IQ motif containing GTPase activating protein 3) | 1.27 | 0.94 | 0.74 |
| MOK (MOK protein kinase) | 0.91 | 0.82 | 0.9 |
| HOXB6 (homeobox B6) | 1.02 | 0.92 | 0.9 |
